Data source: PubChem BioAssay AID504764 (Drosophila RNAi Screening Center, 2011)
Purpose: 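Knock-downs that raise or lower a Notch target reporter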 (primary screen). System: Drosophila Kc167 cells. Reagent: long dsRNA against Drosophila genes. Duration: about 5 days (4 days dsRNA, then 24 h after transfection). Conditions: transfection of constitutively active membrane-tethered Notch lacking the extracellular domain, read 24 h later. Read-out: 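Firefly luciferase from an E(spl)m3 reporter with active Notch, plus control-promoter and uninduced reporter wells for normalisation; unnormalised counts, duplicate wells a and b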. Direction: induced reporter light, run 1, well a and induced reporter light, run 1, well b: higher = more light from the Notch target reporter with active Notch; control promoter light, run 1, well a and control promoter light, run 1, well b: higher = more light from the viral control promoter (cell number, transfection, viability); uninduced reporter light, run 1, well a: higher = more light from the Notch target reporter without active Notch. Hit rule: 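Hit if the duplicate-averaged log2 ratio of induced to control-promoter light gives a plate-wise z beyond ±2, or induced to uninduced beyond ±1.8; weak-control or discordant-duplicate wells dropped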. Meaning of the calls: active = modifier hit (raised or lowered Notch signal); inactive = not a hit.
In all, the deposit lists about 22,000 reagents; this is a random part of those that have a named target and a result. Over the whole deposit, 403 (1.9%) were called active. 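Unnormalised raw counts per well; ratio z-scores behind the hit calls and whether each hit raises or lowers signal are not deposited.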 Not stated in the record: the amount of reagent.

Dus3 (GeneID 35264) [DRSC02059]: induced reporter light, run 1, well a = 17542; induced reporter light, run 1, well b = 31940; control promoter light, run 1, well a = 52805; control promoter light, run 1, well b = 39775; uninduced reporter light, run 1, well a = 2950; Call = inactive
ZIPIC (GeneID 43566) [DRSC16349]: induced reporter light, run 1, well a = 2.01e5; induced reporter light, run 1, well b = 2.11e5; control promoter light, run 1, well a = 2.57e5; control promoter light, run 1, well b = 2.72e5; uninduced reporter light, run 1, well a = 16470; Call = inactive
Dcp-1 (GeneID 37729) [DRSC04609]: induced reporter light, run 1, well a = 1.84e5; induced reporter light, run 1, well b = 1.75e5; control promoter light, run 1, well a = 1.74e5; control promoter light, run 1, well b = 1.81e5; uninduced reporter light, run 1, well a = 13110; Call = inactive
VhaAC39-2 (GeneID 42739) [DRSC15609]: induced reporter light, run 1, well a = 1.35e5; induced reporter light, run 1, well b = 1.38e5; control promoter light, run 1, well a = 1.62e5; control promoter light, run 1, well b = 1.80e5; uninduced reporter light, run 1, well a = 11925; Call = inactive
CG8079 (GeneID 36689) [DRSC07070]: induced reporter light, run 1, well a = 1.21e5; induced reporter light, run 1, well b = 1.29e5; control promoter light, run 1, well a = 1.99e5; control promoter light, run 1, well b = 2.50e5; uninduced reporter light, run 1, well a = 12170; Call = inactive
CG8079 (GeneID 36689) [DRSC07071]: induced reporter light, run 1, well a = 1.01e5; induced reporter light, run 1, well b = 1.29e5; control promoter light, run 1, well a = 1.36e5; control promoter light, run 1, well b = 1.12e5; uninduced reporter light, run 1, well a = 9365; Call = inactive
CG15256 (GeneID 34911) [DRSC01940]: induced reporter light, run 1, well a = 1.38e5; induced reporter light, run 1, well b = 1.49e5; control promoter light, run 1, well a = 1.35e5; control promoter light, run 1, well b = 1.36e5; uninduced reporter light, run 1, well a = 11020; Call = inactive
Ccp84Ag (GeneID 40819) [DRSC12592]: induced reporter light, run 1, well a = 1.07e5; induced reporter light, run 1, well b = 97315; control promoter light, run 1, well a = 91815; control promoter light, run 1, well b = 82305; uninduced reporter light, run 1, well a = 6460; Call = inactive
xit (GeneID 31623) [DRSC18364]: induced reporter light, run 1, well a = 1.48e5; induced reporter light, run 1, well b = 1.46e5; control promoter light, run 1, well a = 1.57e5; control promoter light, run 1, well b = 1.48e5; uninduced reporter light, run 1, well a = 10395; Call = inactive
CG1764 (GeneID 32281) [DRSC19779]: induced reporter light, run 1, well a = 1.54e5; induced reporter light, run 1, well b = 1.32e5; control promoter light, run 1, well a = 1.90e5; control promoter light, run 1, well b = 1.62e5; uninduced reporter light, run 1, well a = 12365; Call = inactive
CG31510 (GeneID 326146) [DRSC14182]: induced reporter light, run 1, well a = 2.04e5; induced reporter light, run 1, well b = 2.25e5; control promoter light, run 1, well a = 2.04e5; control promoter light, run 1, well b = 2.31e5; uninduced reporter light, run 1, well a = 18160; Call = inactive
SIFaR (GeneID 42530) [DRSC13467]: induced reporter light, run 1, well a = 77185; induced reporter light, run 1, well b = 67985; control promoter light, run 1, well a = 1.08e5; control promoter light, run 1, well b = 92095; uninduced reporter light, run 1, well a = 9105; Call = inactive
SIFaR (GeneID 42530) [DRSC14266]: induced reporter light, run 1, well a = 2.24e5; induced reporter light, run 1, well b = 1.94e5; control promoter light, run 1, well a = 2.28e5; control promoter light, run 1, well b = 2.62e5; uninduced reporter light, run 1, well a = 16145; Call = inactive

Copied from the list:
VhaAC39-2 (GeneID 42739) [DRSC15609], induced reporter light, run 1, well b: 1.38e5
Under “control promoter light, run 1, well b”, CG1764 (GeneID 32281) [DRSC19779] is entered as 1.62e5
